The text below walks through data of doi:10.1101/2025.08.20.670930.

The chains behind the UniProt entries cited, without tags or fusion partners.
UniProt O43303: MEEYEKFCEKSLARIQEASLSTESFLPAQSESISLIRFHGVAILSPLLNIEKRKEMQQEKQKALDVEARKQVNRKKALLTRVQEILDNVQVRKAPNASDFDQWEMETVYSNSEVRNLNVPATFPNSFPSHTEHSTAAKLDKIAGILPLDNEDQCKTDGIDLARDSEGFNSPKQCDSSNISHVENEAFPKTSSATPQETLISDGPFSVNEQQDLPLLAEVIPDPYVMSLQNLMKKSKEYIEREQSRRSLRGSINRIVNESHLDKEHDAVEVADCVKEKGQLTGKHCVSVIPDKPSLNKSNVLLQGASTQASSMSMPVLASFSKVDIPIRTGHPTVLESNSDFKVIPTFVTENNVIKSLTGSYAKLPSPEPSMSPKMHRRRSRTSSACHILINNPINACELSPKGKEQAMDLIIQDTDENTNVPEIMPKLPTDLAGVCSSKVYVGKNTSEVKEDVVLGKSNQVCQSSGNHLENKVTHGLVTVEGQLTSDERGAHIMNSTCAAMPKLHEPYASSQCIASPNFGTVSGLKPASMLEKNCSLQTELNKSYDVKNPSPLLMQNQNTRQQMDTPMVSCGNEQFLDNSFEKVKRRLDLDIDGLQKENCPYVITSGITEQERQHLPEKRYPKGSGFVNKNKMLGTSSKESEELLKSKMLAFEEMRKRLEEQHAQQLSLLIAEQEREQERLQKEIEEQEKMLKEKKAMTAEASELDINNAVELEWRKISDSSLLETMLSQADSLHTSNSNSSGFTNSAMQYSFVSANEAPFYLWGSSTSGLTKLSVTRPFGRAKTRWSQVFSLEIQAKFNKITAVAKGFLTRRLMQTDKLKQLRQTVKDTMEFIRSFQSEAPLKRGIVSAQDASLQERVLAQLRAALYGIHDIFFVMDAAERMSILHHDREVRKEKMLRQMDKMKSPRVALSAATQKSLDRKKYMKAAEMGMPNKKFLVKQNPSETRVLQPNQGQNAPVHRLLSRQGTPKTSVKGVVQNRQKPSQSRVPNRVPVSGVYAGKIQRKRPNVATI
UniProt O15078: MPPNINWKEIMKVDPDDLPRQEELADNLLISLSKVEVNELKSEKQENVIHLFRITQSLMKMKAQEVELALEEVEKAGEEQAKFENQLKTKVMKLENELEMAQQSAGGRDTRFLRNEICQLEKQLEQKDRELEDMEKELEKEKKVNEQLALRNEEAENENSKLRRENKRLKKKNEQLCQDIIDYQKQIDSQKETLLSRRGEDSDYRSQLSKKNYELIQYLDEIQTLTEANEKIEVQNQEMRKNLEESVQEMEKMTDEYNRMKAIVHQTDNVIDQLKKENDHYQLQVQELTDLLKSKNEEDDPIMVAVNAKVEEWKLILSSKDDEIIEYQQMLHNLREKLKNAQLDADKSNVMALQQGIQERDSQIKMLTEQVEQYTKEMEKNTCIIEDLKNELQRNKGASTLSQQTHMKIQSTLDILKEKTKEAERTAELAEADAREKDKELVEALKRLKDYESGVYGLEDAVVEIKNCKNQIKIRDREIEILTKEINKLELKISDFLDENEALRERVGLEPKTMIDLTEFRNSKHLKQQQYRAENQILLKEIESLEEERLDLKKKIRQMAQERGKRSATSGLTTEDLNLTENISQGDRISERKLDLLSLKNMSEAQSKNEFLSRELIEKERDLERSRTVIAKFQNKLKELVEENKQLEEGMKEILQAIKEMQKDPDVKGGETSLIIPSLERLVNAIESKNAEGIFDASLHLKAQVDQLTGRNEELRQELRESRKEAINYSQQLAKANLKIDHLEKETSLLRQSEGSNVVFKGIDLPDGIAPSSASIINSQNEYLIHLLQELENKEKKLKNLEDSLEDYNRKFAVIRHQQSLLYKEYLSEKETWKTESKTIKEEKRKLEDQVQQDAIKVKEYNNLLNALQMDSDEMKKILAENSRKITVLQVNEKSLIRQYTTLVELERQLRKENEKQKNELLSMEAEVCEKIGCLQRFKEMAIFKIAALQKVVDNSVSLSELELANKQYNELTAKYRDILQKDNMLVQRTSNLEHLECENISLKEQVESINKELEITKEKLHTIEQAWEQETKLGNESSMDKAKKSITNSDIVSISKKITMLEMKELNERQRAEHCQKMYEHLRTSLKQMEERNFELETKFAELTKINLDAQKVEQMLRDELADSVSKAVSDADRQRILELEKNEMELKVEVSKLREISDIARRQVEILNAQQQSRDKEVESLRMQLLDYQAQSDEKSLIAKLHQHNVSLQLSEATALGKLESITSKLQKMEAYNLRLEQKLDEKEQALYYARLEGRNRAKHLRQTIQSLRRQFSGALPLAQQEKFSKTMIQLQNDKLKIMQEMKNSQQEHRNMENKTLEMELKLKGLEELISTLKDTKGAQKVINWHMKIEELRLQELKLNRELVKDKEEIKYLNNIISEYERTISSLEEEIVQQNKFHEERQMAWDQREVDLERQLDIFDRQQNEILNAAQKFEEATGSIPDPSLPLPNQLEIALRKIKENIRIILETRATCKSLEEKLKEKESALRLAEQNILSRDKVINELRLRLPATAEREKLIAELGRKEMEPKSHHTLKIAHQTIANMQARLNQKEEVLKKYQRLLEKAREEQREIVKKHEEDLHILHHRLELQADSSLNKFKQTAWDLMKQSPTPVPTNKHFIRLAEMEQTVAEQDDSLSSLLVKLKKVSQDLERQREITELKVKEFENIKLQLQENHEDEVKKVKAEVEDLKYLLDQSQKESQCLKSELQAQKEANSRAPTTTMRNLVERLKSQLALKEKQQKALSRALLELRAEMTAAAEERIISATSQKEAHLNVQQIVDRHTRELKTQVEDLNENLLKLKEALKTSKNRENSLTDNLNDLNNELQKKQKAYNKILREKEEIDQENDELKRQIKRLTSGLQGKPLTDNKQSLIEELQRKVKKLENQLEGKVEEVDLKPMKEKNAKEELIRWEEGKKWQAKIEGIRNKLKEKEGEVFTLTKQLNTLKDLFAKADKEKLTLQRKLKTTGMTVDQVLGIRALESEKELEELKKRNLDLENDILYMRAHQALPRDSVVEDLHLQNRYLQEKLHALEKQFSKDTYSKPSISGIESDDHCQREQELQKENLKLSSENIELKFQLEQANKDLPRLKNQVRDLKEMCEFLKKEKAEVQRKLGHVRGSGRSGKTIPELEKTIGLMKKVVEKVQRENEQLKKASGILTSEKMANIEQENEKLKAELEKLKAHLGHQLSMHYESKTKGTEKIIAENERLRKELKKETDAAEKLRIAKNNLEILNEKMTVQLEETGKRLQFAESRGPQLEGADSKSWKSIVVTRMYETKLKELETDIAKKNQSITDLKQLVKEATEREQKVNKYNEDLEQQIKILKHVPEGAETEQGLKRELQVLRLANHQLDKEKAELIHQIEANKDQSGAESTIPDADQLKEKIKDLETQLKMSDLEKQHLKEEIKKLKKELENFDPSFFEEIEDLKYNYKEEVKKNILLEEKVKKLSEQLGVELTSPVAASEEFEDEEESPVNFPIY
UniProt Q96JN8: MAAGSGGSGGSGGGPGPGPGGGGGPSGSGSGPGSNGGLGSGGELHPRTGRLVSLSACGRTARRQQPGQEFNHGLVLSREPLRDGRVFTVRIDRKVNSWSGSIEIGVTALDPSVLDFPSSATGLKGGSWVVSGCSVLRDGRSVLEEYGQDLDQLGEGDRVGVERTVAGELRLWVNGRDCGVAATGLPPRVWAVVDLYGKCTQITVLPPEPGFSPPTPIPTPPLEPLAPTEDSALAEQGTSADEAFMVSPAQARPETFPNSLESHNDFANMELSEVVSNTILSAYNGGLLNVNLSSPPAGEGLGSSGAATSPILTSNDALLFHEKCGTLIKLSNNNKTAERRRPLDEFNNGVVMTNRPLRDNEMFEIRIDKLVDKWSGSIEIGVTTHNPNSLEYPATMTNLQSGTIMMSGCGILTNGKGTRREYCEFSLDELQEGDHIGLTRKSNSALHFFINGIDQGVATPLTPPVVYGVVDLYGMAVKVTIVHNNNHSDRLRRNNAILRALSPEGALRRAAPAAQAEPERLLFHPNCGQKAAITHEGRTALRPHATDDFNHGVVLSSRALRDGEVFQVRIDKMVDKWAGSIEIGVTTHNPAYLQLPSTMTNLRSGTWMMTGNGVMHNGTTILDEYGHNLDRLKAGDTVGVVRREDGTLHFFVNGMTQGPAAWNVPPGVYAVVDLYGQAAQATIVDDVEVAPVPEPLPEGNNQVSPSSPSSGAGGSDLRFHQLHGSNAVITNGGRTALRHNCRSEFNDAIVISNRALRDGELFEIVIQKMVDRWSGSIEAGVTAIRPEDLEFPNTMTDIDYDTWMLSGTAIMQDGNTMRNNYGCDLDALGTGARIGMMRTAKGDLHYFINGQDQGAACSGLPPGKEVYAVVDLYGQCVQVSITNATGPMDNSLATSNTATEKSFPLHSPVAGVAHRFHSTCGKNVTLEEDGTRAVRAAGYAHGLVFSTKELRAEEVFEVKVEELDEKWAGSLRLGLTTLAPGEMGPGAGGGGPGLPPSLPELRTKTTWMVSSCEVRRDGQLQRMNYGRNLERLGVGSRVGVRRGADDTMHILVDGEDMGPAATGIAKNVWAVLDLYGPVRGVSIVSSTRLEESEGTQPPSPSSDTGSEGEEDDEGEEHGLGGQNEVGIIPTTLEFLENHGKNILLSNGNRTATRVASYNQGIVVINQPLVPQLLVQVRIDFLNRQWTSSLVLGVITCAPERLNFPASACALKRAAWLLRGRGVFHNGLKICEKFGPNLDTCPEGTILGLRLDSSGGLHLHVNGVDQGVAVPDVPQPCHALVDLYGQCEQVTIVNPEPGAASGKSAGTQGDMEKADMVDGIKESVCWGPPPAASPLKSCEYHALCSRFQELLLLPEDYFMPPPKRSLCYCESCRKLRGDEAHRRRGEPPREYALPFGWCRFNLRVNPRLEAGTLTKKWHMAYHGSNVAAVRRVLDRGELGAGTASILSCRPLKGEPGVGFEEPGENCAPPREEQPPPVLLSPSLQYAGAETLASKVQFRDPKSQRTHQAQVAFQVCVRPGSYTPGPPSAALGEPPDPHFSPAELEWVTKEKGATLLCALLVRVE

No constants are given. Whether binding was seen depends on the method and setting. Binding seen in cells or lysates may run through a third protein. These calls come from enrichment with a bait or labelling near it, and not all partners need be listed.

The target of one assay is LAP-CP110 (UniProt O43303). In words: affinity purification with mass spectrometry; 293T cells stably expressing LAP, LAP-CP110 or LAP-EHD1, serum-starved 3 h; lysis in 50 mM Tris-HCl pH 7.4, 150 mM NaCl, 1% Triton-X100, 10% glycerol; GFP-Trap resin 2 h in a cold room, four washes; LAP alone as control.
The target of the next assay is T1, LAP-EHD1 (UniProt Q9H4M9).
T1 sequence: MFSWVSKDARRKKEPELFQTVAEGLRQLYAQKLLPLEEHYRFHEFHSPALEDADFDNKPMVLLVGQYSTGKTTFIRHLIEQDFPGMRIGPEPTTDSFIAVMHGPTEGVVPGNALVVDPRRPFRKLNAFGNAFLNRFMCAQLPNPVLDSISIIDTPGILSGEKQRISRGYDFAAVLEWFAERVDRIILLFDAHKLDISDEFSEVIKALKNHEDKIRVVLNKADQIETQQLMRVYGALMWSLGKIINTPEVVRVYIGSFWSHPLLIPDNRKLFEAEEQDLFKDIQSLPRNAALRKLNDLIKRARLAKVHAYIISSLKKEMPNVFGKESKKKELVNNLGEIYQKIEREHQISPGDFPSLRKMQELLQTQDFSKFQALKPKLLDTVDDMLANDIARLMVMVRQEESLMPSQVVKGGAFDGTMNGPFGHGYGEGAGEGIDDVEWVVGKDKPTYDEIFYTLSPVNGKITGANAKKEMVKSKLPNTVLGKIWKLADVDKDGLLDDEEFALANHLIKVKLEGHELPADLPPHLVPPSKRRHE
The assay is described as above.

Take CEP290 (from UniProt O15078 1-2479): the binding result in the assay with LAP-CP110 is reported as “binds”. As to HERC2 (from UniProt O95714 1-4834), the binding result with LAP-CP110 and in the assay with LAP-EHD1 was “binds” throughout.

As for NEURL4 (from UniProt Q96JN8 1-1562), the binding result in the assay with LAP-CP110 is “binds”.

B1: EHD1 (endogenous) (protein, UniProt Q9H4M9 1-534)
chain: MFSWVSKDARRKKEPELFQTVAEGLRQLYAQKLLPLEEHYRFHEFHSPALEDADFDNKPMVLLVGQYSTGKTTFIRHLIEQDFPGMRIGPEPTTDSFIAVMHGPTEGVVPGNALVVDPRRPFRKLNAFGNAFLNRFMCAQLPNPVLDSISIIDTPGILSGEKQRISRGYDFAAVLEWFAERVDRIILLFDAHKLDISDEFSEVIKALKNHEDKIRVVLNKADQIETQQLMRVYGALMWSLGKIINTPEVVRVYIGSFWSHPLLIPDNRKLFEAEEQDLFKDIQSLPRNAALRKLNDLIKRARLAKVHAYIISSLKKEMPNVFGKESKKKELVNNLGEIYQKIEREHQISPGDFPSLRKMQELLQTQDFSKFQALKPKLLDTVDDMLANDIARLMVMVRQEESLMPSQVVKGGAFDGTMNGPFGHGYGEGAGEGIDDVEWVVGKDKPTYDEIFYTLSPVNGKITGANAKKEMVKSKLPNTVLGKIWKLADVDKDGLLDDEEFALANHLIKVKLEGHELPADLPPHLVPPSKRRHE
For B1, the binding entry with LAP-CP110 is given as “binds”.
